We go through one compound from ChEMBL document CHEMBL1821726, “The discovery of benzanilides as c-Met receptor tyrosine kinase inhibitors by a directed screening approach” (Bioorg Med Chem Lett, 2011).

A short description of the data set: Lipophilicity, log D of the compound at pH 7.4. The conditions noted are these: buffer.

`O=C(Nc1cccc(O)c1)c1ccc(OCCCN2CCCC2)cc1OCc1cccc(F)c1` registered a logD of 3.1.
